No constants are given. Whether binding was seen depends on the method and setting. Binding seen in cells or lysates may run through a third protein. A result given as binding can be weak or reduced; the word gives no strength. Sequences can lack the tags named with a protein.
Key:
[1] = target: T1, Arm^34–87-GFP (Drosophila) (UniProt P18824); test: co-IP
T1 sequence: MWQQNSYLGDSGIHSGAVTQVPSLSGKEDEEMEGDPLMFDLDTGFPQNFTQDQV

[2] = target: T2, GST-Arm^34–87 (Drosophila) (UniProt P18824); test: pull-down
T2 sequence: T1 sequence

## IFT140-myc (Drosophila)
[1]
  binding: binds

## IFT144-myc (Drosophila)
[1]
  binding: no binding

## MBP-IFT140 (Drosophila)
[2]
  binding: binds

## MBP-Kap3 (Drosophila)
[2]
  binding: no binding

## MBP-Klp64D (Drosophila)
[2]
  binding: no binding

Source: doi:10.1101/2023.06.14.544986
